Hit rate of the full screen: of about 320,000 compounds, about 22,000 (6.9%) were called active. Inconclusive means that the source gave no clear call. Such entries were picked first, then a sample of the others. Calls follow the shape of the dose curve; as a rule, active = well fitted inhibition curve with a large enough effect; inconclusive = small, poorly fitted or top-dose-only effect, or another doubt; inactive = no such curve, though single readings can be large or run the other way. A potency beside an inconclusive call is a rough fit, not a confirmed value.
Test: Primary qHTS for delayed death inhibitors of the malarial parasite plastid, 96 hour incubation
Settings: P. falciparum luciferase reporter growth; series mostly up to 28.7 µM
Summary of the method: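 Parasite growth measured via integrated firefly luciferase reporter in P. falciparum. Infected erythrocytes at 2% hematocrit, 0.05% parasitemia final were treated 96 hours at 37 C under 5% CO2, and luminescence was read.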
Potency is read from the fitted curve at half-maximal effect.

SMILES	Potency
COC(=O)c1ccccc1SC1CC(=O)N(c2ccccc2)C1=O (stereo not drawn)	active: 11.7 µM
CCn1cc(C(=O)c2ccccc2)c2ccccc21	inconclusive: 4.15 µM [inhibitor, partial curve, poor fit]
CCCCCC#CCC#CCC#CCC#CCCCC(=O)O	inactive
O=C(CCC(=O)N1CCOCC1)Nc1ccc(Cl)c(Cl)c1	inactive
O=C(OCc1nc2ccsc2c(=O)[nH]1)c1ccccc1	inactive
N#CC1(c2ccccc2)CCN(C2CC(=O)N(c3cccc(F)c3)C2=O)CC1 (stereo not drawn)	active: 8.28 µM
CC(C)n1nnnc1SCC(=O)N1N=C(c2cccs2)CC1c1cccs1 (stereo not drawn)	inactive
CCOc1ccc(S(=O)(=O)N2CCCCC2)cc1NC(=O)c1c(CC)noc1C	inactive
O=c1c2c3c(sc2nc2n1N=C(c1cccs1)CS2)CCCC3	inactive
CC[C@@]1(c2ccccc2C)C(=O)N(C(=O)OC)N1C(=O)OC	inconclusive: 0.117 µM [inhibitor, full curve, poor fit]
CCC(C)c1ccc(NC(=S)Nc2ccc(OC)cc2C)cc1 (stereo not drawn)	inconclusive: 18.5 µM [inhibitor, single point]
CCOC(=O)C[n+]1c(C)sc2ccc(OC)cc21	inconclusive: 18.5 µM [inhibitor, single point]
NNC(=O)c1cnn(-c2ccccc2)c1-n1cccc1	inactive
CC(C)(C)NC(=O)c1sccc1C(=O)O	inconclusive: 18.5 µM [inhibitor, single point]
COc1cc(C(=O)NCCCN2CCCC2=O)cc(Br)c1OCc1ccccc1	inconclusive: 13.1 µM [inhibitor, partial curve, poor fit]
CC(C)c1nnc2n1N=C(c1ccc(Cl)cc1)CS2	inconclusive: 10.4 µM [inhibitor, single point]
O=C(NCCc1ccc(Cl)cc1)c1n[nH]c2ccccc12	inactive
CCN(CC)c1ccc(/C=C2\SC(=O)N(C(C)C)C2=O)o1	inconclusive: 13.1 µM [inhibitor, partial curve, poor fit]
Cc1cccc(NC(=O)c2ccc(NCC3CCCO3)c([N+](=O)[O-])c2)c1 (stereo not drawn)	inconclusive: 18.5 µM [inhibitor, single point]
COc1ccc(C(=O)NCCCc2nc3ccccc3n2Cc2ccccc2C)cc1OC	active: 9.28 µM
O=C(CCNC(=O)c1ccc(Cl)cc1)Nc1ccc(S(=O)(=O)N2CCCCC2)cc1	inactive
COc1ccc(NC(=S)NC(=O)/C=C/c2cccs2)cc1	inactive
COC(=O)c1ccc(/C=N\N2CCN(Cc3ccc(C)cc3)CC2)cc1	inactive
CCN(CC)CCn1c2ccccc2c2cnc(N=CN(C)C)c(C#N)c21	inconclusive: 2.33 µM [inhibitor, full curve, poor fit]

Rewritten field by field: part of the list above.
O=C(OCc1nc2ccsc2c(=O)[nH]1)c1ccccc1
  Potency: inactive
N#CC1(c2ccccc2)CCN(C2CC(=O)N(c3cccc(F)c3)C2=O)CC1 (stereo not drawn)
  Potency: active: 8.28 µM

The listing continues:

SMILES	Potency
Cc1onc(-c2ccccc2Cl)c1-c1nc(-c2ccncc2)no1	active: 11.7 µM
COc1ccc(C(=O)/C=C2\NCCc3cc(OC)c(OC)cc32)cc1OC	active: 13.1 µM
Cc1nc(-n2nnc3cc(C)c(C)cc32)c2c3c(sc2n1)CCCC3	inconclusive: 2.33 µM [inhibitor, partial curve, poor fit]
CCc1ccc(C(=O)COC(=O)c2cc([N+](=O)[O-])ccc2N2CCOCC2)cc1	inconclusive: 11.7 µM [inhibitor, single point]
CC(O)CNc1ccc([N+](=O)[O-])c2cccnc12 (stereo not drawn)	inconclusive: 8.28 µM [inhibitor, partial curve, poor fit]
CS(=O)(=O)C1=NSC2=NC(=O)/C(=C\c3ccc(OS(=O)(=O)c4ccccc4)cc3)C(=N)N21	inconclusive: 7.38 µM [inhibitor, partial curve, poor fit]
Cc1nn(Cc2ccccc2)c(C)c1C=C1C(=O)NC(=S)NC1=O	inconclusive: 4.65 µM [inhibitor, partial curve, poor fit]
CCOc1ccc(OCC)c(NC(=O)CC2Oc3ccccc3NC2=O)c1 (stereo not drawn)	inactive
COc1cc(N2CCCC2)ccc1C=O	inconclusive: 11.7 µM [inhibitor, single point]
FC(F)Sc1ccc(N=C2NN=C(c3ccc4c(c3)OCCO4)CS2)cc1	inconclusive: 4.65 µM [inhibitor, single point]
CC(NC(=O)c1ccco1)C(=O)N1CCN(c2ccccc2)CC1 (stereo not drawn)	inactive
CCn1cc(CCCC(=O)NCc2cccc(OC)c2)c2ccccc21	inconclusive: 3.7 µM [inhibitor, partial curve, poor fit]
Cc1nnc2ccc(-c3cccc(NS(=O)(=O)c4ccccc4Cl)c3)nn12	inconclusive: 2.94 µM [inhibitor, single point]
Cc1cc(C)c2c(N)c(C(=O)Nc3cccc(C)c3C)sc2n1	inactive
O=C(Nc1ccccn1)c1cc(-c2cccnc2)nc2ccc(Br)cc12	inactive
COCCN(C(=O)COC(=O)/C=C/c1ccc2c(c1)OCO2)c1c(N)n(Cc2ccccc2)c(=O)[nH]c1=O	inconclusive: 8.28 µM [inhibitor, partial curve, poor fit]
O=C(NCCCN1CCOCC1)c1ccc2c(c1)N(Cc1c(F)cccc1Cl)C(=O)CS2	inconclusive: 18.5 µM [inhibitor, single point]
CCOc1ccc(/C=N/Nc2ccccc2)cc1	inactive
COc1ccc(S(=O)(=O)N2CCCC(C(=O)NCc3cccnc3)C2)cc1OC (stereo not drawn)	inconclusive: 13.1 µM [inhibitor, partial curve]
C=C1C(=O)C=C[C@]2(C)C[C@@H]3OC(=O)[C@](C)(O)[C@H]3C[C@@H]12	active: 14.7 µM
O=C(c1ccc(-c2cc(O)c3ncccc3c2)cc1)N1CCNCC1	active: 9.28 µM
CCOc1ccc(CCNC(=O)C2CCCN(S(=O)(=O)N3CCOCC3)C2)cc1OCC (stereo not drawn)	inconclusive: 18.5 µM [inhibitor, single point]
Cc1ccc(OCC(=O)Nc2ccccc2F)cc1C	inconclusive: 18.5 µM [inhibitor, single point]
O=c1c2ccccc2nc2sc(Nc3cccc(Cl)c3)nn12	inconclusive: 2.33 µM [inhibitor, partial curve, poor fit]

Looked up by compound from the entries so far (three):
SMILES	Potency
Cc1onc(-c2ccccc2Cl)c1-c1nc(-c2ccncc2)no1	active: 11.7 µM
CC(NC(=O)c1ccco1)C(=O)N1CCN(c2ccccc2)CC1 (stereo not drawn)	inactive
CCCCCC#CCC#CCC#CCC#CCCCC(=O)O	inactive

— PubChem BioAssay AID504834 (National Center for Advancing Translational Sciences (NCATS), 2011)
